No constants are given. Whether binding was seen depends on the method and setting. In cells and extracts the contact can be indirect. Here binding means that the protein was enriched with, or labelled near, the bait; the list need not be complete. Tags and fused reporters may be left off the sequences shown.
T1: mouse progranulin tagged with HA (mouse) (UniProt P28798)
T1 sequence: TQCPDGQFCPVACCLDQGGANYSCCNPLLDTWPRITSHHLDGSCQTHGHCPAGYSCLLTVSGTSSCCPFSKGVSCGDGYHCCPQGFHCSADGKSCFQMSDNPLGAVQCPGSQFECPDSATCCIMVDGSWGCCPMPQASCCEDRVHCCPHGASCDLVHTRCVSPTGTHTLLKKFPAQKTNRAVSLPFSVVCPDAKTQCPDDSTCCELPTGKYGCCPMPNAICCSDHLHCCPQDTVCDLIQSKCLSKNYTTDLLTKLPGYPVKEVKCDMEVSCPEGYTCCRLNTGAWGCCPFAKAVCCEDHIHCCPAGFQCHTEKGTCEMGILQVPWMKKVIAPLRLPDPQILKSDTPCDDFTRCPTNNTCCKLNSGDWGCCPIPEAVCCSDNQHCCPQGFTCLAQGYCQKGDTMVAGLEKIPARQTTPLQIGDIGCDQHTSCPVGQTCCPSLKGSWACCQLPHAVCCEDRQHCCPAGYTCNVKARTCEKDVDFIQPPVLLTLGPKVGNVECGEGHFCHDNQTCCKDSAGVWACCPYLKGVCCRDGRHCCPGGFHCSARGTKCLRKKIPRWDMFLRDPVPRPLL

Amino acid sequences for entries named in this document (tags omitted). Residues count along the entry.
UniProt P11021, residues 19-654: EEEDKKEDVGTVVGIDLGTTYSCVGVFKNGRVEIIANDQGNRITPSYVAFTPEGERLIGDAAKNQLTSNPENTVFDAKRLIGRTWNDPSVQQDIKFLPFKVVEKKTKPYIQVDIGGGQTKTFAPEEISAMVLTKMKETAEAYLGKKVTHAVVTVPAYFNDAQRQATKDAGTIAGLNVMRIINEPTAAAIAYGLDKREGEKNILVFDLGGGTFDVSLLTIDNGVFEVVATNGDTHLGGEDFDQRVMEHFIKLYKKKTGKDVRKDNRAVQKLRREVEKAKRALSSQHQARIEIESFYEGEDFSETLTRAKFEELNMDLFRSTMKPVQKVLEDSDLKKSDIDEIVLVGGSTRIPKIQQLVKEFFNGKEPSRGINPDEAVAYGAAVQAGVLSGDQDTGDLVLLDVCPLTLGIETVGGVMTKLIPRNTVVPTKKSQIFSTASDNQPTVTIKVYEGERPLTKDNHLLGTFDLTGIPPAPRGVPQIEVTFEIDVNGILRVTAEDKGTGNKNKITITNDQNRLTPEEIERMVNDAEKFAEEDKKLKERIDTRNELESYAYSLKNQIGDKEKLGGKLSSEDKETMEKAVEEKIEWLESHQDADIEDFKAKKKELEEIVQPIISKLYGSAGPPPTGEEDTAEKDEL
UniProt P30101, residues 25-505: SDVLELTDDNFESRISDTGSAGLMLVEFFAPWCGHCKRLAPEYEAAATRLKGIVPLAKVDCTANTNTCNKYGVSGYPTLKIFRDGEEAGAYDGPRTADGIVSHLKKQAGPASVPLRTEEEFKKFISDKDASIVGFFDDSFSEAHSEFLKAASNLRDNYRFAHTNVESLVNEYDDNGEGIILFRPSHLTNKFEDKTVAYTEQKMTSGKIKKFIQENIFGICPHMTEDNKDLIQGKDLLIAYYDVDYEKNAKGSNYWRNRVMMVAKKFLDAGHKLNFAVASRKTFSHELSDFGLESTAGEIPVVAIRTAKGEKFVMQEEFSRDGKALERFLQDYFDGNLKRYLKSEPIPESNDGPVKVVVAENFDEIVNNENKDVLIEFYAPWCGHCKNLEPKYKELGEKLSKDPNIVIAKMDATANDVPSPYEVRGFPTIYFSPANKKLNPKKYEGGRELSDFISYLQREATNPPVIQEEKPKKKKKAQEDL
UniProt P14625, residues 22-803: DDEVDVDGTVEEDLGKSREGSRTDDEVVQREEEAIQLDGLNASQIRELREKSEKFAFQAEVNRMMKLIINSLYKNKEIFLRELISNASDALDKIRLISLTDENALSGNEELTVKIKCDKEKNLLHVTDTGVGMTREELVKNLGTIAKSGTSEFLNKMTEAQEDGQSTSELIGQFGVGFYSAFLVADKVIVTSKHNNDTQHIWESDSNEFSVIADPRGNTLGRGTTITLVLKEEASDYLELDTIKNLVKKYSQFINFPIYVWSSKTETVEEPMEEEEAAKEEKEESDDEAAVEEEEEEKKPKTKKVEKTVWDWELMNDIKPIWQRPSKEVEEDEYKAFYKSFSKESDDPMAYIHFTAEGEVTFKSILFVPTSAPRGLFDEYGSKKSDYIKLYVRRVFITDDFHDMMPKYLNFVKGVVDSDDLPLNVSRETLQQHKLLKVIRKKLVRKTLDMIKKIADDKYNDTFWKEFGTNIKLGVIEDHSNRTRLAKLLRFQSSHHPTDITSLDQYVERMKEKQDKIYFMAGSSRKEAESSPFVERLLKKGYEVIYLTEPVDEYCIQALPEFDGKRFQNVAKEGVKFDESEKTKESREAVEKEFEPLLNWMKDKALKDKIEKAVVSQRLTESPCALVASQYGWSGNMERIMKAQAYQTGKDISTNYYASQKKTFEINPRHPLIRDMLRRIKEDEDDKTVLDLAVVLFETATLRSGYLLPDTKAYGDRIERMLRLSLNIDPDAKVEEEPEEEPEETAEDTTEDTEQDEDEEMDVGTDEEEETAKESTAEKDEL
UniProt P0DMV8: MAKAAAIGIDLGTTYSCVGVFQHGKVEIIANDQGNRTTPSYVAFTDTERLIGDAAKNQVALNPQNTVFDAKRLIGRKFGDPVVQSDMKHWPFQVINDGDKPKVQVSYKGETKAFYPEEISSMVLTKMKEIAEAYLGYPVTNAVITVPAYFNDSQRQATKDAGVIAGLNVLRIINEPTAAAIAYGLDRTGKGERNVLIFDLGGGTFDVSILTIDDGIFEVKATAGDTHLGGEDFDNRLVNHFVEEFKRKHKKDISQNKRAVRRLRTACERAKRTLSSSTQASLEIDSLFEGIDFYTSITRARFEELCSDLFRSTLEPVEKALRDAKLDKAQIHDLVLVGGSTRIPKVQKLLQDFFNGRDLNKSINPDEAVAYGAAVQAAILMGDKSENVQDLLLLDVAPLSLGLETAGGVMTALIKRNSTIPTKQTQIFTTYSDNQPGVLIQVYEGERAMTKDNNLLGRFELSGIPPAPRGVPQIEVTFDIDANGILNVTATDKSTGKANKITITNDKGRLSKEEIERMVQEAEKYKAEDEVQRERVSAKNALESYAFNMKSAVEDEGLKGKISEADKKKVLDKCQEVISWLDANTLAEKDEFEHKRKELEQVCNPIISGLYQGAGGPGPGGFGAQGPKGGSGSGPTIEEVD
UniProt P07237, residues 18-508: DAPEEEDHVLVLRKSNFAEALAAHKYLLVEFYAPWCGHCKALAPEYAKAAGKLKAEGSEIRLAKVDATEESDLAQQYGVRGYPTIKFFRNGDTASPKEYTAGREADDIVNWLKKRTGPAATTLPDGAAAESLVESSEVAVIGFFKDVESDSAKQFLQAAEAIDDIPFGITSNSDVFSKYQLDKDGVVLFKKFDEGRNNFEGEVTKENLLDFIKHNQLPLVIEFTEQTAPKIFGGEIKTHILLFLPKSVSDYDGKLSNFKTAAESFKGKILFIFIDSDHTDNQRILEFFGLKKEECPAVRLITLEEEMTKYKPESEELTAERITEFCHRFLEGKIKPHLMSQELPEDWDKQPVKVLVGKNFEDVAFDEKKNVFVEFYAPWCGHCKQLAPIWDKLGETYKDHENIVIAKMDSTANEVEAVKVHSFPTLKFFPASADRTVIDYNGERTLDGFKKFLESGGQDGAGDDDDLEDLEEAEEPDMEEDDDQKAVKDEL

B1: ERp72 (enzyme, UniProt P13667 21-645)
chain: VAGAEGPDEDSSNRENAIEDEEEEEEEDDDEEEDDLEVKEENGVLVLNDANFDNFVADKDTVLLEFYAPWCGHCKQFAPEYEKIANILKDKDPPIPVAKIDATSASVLASRFDVSGYPTIKILKKGQAVDYEGSRTQEEIVAKVREVSQPDWTPPPEVTLVLTKENFDEVVNDADIILVEFYAPWCGHCKKLAPEYEKAAKELSKRSPPIPLAKVDATAETDLAKRFDVSGYPTLKIFRKGRPYDYNGPREKYGIVDYMIEQSGPPSKEILTLKQVQEFLKDGDDVIIIGVFKGESDPAYQQYQDAANNLREDYKFHHTFSTEIAKFLKVSQGQLVVMQPEKFQSKYEPRSHMMDVQGSTQDSAIKDFVLKYALPLVGHRKVSNDAKRYTRRPLVVVYYSVDFSFDYRAATQFWRSKVLEVAKDFPEYTFAIADEEDYAGEVKDLGLSESGEDVNAAILDESGKKFAMEPEEFDSDTLREFVTAFKKGKLKPVIKSQPVPKNNKGPVKVVVGKTFDSIVMDPKKDVLIEFYAPWCGHCKQLEPVYNSLAKKYKGQKGLVIAKMDATANDVPSDRYKVEGFPTIYFAPSGDKKNPVKFEGGDRDLEHLSKFIEEHATKLSRTKEEL
B2: ERp5 (enzyme, UniProt Q15084 20-440)
chain: LYSSSDDVIELTPSNFNREVIQSDSLWLVEFYAPWCGHCQRLTPEWKKAATALKDVVKVGAVDADKHHSLGGQYGVQGFPTIKIFGSNKNRPEDYQGGRTGEAIVDAALSALRQLVKDRLGGRSGGYSSGKQGRSDSSSKKDVIELTDDSFDKNVLDSEDVWMVEFYAPWCGHCKNLEPEWAAAASEVKEQTKGKVKLAAVDATVNQVLASRYGIRGFPTIKIFQKGESPVDYDGGRTRSDIVSRALDLFSDNAPPPELLEIINEDIAKRTCEEHQLCVVAVLPHILDTGAAGRNSYLEVLLKLADKYKKKMWGWLWTEAGAQSELETALGIGGFGYPAMAAINARKMKFALLKGSFSEQGINEFLRELSFGRGSTAPVGGGAFPTIVEREPWDGRDGELPVEDDIDLSDVELDDLGKDEL

The molecules below were run against T1, mouse progranulin tagged with HA (mouse) (assay: cross-linking + affinity purification with mass spectrometry; HEK293 cells stably expressing mPGRN-HA treated with 1 mM DSS (membrane-permeable) in Ca2+- and Mg2+-free PBS, 30 min, room temperature; lysed in 50 mM Tris-HCl, 150 mM NaCl, 0.5% Triton X-100, 1 mM EDTA; IP with anti-HA (3F10) overnight at 4 °C, protein G-agarose; SDS-PAGE, silver stain, bands 1-4 cut out for mass spectrometry).

binding, binds:
BiP (from UniProt P11021 19-654)
ERp57 (from UniProt P30101 25-505) (enzyme)
GRP94 (from UniProt P14625 22-803)
HSP70-1 (from UniProt P0DMV8 1-641)
calreticulin (from UniProt P27797 18-417)
protein disulfide isomerase (from UniProt P07237 18-508) (enzyme)
B1
B2

From article PMC3196579
